Eleven compounds from PubChem BioAssay AID272 (DTP/NCI, 2004) can be followed below.

The list shows only some results of the screen, not a fair sample: it gathers tests that were run many times, whatever their T/C, doses with no T/C, and many T/C values between a quarter and a half above the control. Further doses and runs are listed elsewhere. T/C: endpoint of the treated group in % of that of the vehicle group. Some doses have a count of surviving animals in place of a T/C: the source files T/C as zero there, which appears to mark a toxic dose or a test without result, not a measured value. Some survivor counts are full or nearly so, which does not show that the dose was tolerated: the source hardly ever lists a survival T/C far under the control, and the zero likely stands for such cases as well. Counts of survivors are from the toxicity check (mostly the fifth day) where no day follows; animals may have died later. Schedule codes are those of the source, taken here to give the interval after Q, in days (D) or hours (H), and the number of doses after X. Some entries hold several experiments; their values stand side by side, smallest first. For survival time, the PubChem record calls one and a half times the control and up active, and a quarter to a half above the control has no call in these data; cut-offs in other NCI protocols can differ. Some T/C values carry the count of animals alive at the toxicity check (mostly the fifth day); where none is given, no animal had died by that day. Starred links: 1 amine or outer side, 2 acyl side, 3 side chain; linkers in the order of their positions; H or OH if unused. Positions of bridges follow the written chain, without caps; N, C: chain ends. Non-standard residues stand in square brackets, D forms with d. Residues, ends and D or L forms follow the SMILES beside them. Chains are numbered I, II in the order given. Actinocin(9to1) = Cc1c2oc3c(C)ccc(C(=O)[*:1])c3nc-2c(C(=O)[*:2])c(N)c1=O; aThr = C[C@H](O)[C@H](N)C(=O)O; NMeV = CN[C@H](C(=O)O)C(C)C; Sar = CNCC(=O)O

For this test, the system named is Lewis lung carcinoma i.m., BDF1 mice, T/C %. Put plainly: NCI In Vivo Anticancer Drug Screen. Data for tumor model Lewis Lung Carcinoma (intramuscular) in B6D2F1 (BDF1) mice. The procedure, abridged:
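Transplantable tumour model; readout survival or tumour size; value = treated (T) / vehicle control (C).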

Setting [1] is: T/C endpoint: median survival time, dose: 200.0 mg/kg/injection, schedule: Q01DX011 (ip), vehicle: Klucel (hydroxypropylcellulose) (HPC), higher T/C = longer survival.
Where [2] appears, read: T/C endpoint: median survival time, dose: 0.25 mg/kg/injection, schedule: Q01DX011 (ip), vehicle: saline, higher T/C = longer survival.
[3] abbreviates: T/C endpoint: median survival time, dose: 0.5 mg/kg/injection, schedule: Q01DX011 (ip), vehicle: saline, higher T/C = longer survival.
Where [4] appears, read: T/C endpoint: median survival time, dose: 1.0 mg/kg/injection, schedule: Q01DX011 (ip), vehicle: saline, higher T/C = longer survival.
Where [5] appears, read: T/C endpoint: median survival time, dose: 0.1 mg/kg/injection, schedule: Q01DX011 (ip), vehicle: water, higher T/C = longer survival.
Setting [6] is: T/C endpoint: median survival time, dose: 12.5 mg/kg/injection, schedule: Q01DX011 (ip), vehicle: saline, higher T/C = longer survival.

Turning to `CC(=O)OCC1OC(n2ncc(=O)[nH]c2=O)C(OC(C)=O)C1OC(C)=O` (stereo not given), the survivor count (T/C endpoint: mean tumor weight (est.), dose: 100.0 mg/kg/injection, schedule: Q01DX011 (ip), vehicle: water, higher T/C = larger tumour) is reported as 4 of 8; the survivor count (T/C endpoint: mean tumor weight, dose: 1600.0 mg/kg/injection, schedule: Q01DX011 (ip), vehicle: Klucel (hydroxypropylcellulose) (HPC), higher T/C = larger tumour) is recorded as 4 of 8; the survivor count (T/C endpoint: median survival time, dose: 12.5 mg/kg/injection, schedule: Q01DX011 (ip), vehicle: Klucel (hydroxypropylcellulose) (HPC), higher T/C = longer survival) is reported as 6 of 8; the survivor count (T/C endpoint: median survival time, dose: 25.0 mg/kg/injection, schedule: Q01DX011 (ip), vehicle: Klucel (hydroxypropylcellulose) (HPC), higher T/C = longer survival) was 7 of 8; the survivor count (T/C endpoint: median survival time, dose: 50.0 mg/kg/injection, schedule: Q01DX011 (ip), vehicle: Klucel (hydroxypropylcellulose) (HPC), higher T/C = longer survival) is listed as 6 of 8; the survivor count (T/C endpoint: median survival time, dose: 100.0 mg/kg/injection, schedule: Q01DX011 (ip), vehicle: Klucel (hydroxypropylcellulose) (HPC), higher T/C = longer survival) is on record as 2 of 8. Also, the survivor count (T/C endpoint: median survival time, dose: 100.0 mg/kg/injection, schedule: Q01DX011 (ip), vehicle: water, higher T/C = longer survival) is on record as 4 of 8; the survivor count under setting [1] is on record as 8 of 8; the survivor count (T/C endpoint: median survival time, dose: 400.0 mg/kg/injection, schedule: Q01DX011 (ip), vehicle: Klucel (hydroxypropylcellulose) (HPC), higher T/C = longer survival) was 8 of 8; the survivor count (T/C endpoint: median survival time, dose: 800.0 mg/kg/injection, schedule: Q01DX011 (ip), vehicle: Klucel (hydroxypropylcellulose) (HPC), higher T/C = longer survival) is recorded as 8 of 8; the survivor count (T/C endpoint: median survival time, dose: 1600.0 mg/kg/injection, schedule: Q01DX011 (ip), vehicle: Klucel (hydroxypropylcellulose) (HPC), higher T/C = longer survival) is 4 of 8. Also, the T/C under setting [1] was 132 % of control [6 of 8 alive].
Turning to `ClC1=NC(Cl)C(Cl)=N/C1=N\c1ncn[nH]1` (stereo not given), the survivor count by setting is: (T/C endpoint: median survival time, dose: 32.0 mg/kg/injection, schedule: Q01DX011 (ip), vehicle: saline, higher T/C = longer survival) 5 of 8; (T/C endpoint: median survival time, dose: 64.0 mg/kg/injection, schedule: Q01DX011 (ip), vehicle: saline, higher T/C = longer survival) 0 of 8; (T/C endpoint: median survival time, dose: 128.0 mg/kg/injection, schedule: Q01DX011 (ip), vehicle: saline, higher T/C = longer survival) 0 of 8.
Take `Nc1nc(Cl)nc2c1ncn2C1OC(CO)C(O)C1O` (stereo not given): for the setting “T/C endpoint: median survival time, dose: 100.0 mg/kg/injection, schedule: Q01DX011 (ip), vehicle: saline with Tween-80, higher T/C = longer survival”, the survivor count is recorded as 6 of 8.
Consider `N=[N+]=CC(=O)CCC(NC(=O)C(CCC(=O)C=[N+]=N)NC(=O)CCC(N)C(=O)O)C(=O)O` (stereo not given), for which the survivor count is 5 of 8 (T/C endpoint: mean tumor weight, dose: 0.06 mg/kg/injection, schedule: Q01DX011 (ip), vehicle: saline, higher T/C = larger tumour); 5 of 8 (T/C endpoint: median survival time, dose: 0.06 mg/kg/injection, schedule: Q01DX011 (ip), vehicle: saline, higher T/C = longer survival); 10 of 10 (T/C endpoint: median survival time, dose: 0.1 mg/kg/injection, schedule: Q01DX009 (ip), vehicle: Klucel (hydroxypropylcellulose) (HPC), higher T/C = longer survival); 2 of 8 (T/C endpoint: median survival time, dose: 0.13 mg/kg/injection, schedule: Q01DX011 (ip), vehicle: saline, higher T/C = longer survival); 10 of 10 (T/C endpoint: median survival time, dose: 0.2 mg/kg/injection, schedule: Q01DX009 (ip), vehicle: Klucel (hydroxypropylcellulose) (HPC), higher T/C = longer survival); 10 of 10 (T/C endpoint: median survival time, dose: 0.2 mg/kg/injection, schedule: Q01DX011 (ip), vehicle: saline, higher T/C = longer survival). In addition, the survivor count runs as follows: under setting [2], 0 of 8; (T/C endpoint: median survival time, dose: 0.4 mg/kg/injection, schedule: Q01DX009 (ip), vehicle: Klucel (hydroxypropylcellulose) (HPC), higher T/C = longer survival) 10 of 10; under setting [3], 0 of 8; (T/C endpoint: median survival time, dose: 0.8 mg/kg/injection, schedule: Q01DX009 (ip), vehicle: Klucel (hydroxypropylcellulose) (HPC), higher T/C = longer survival) 10 of 10; (T/C endpoint: median survival time, dose: 0.8 mg/kg/injection, schedule: Q01DX011 (ip), vehicle: saline, higher T/C = longer survival) 10 of 10; under setting [4], 0 of 8. The survivor count was 9 of 10 (T/C endpoint: median survival time, dose: 1.6 mg/kg/injection, schedule: Q01DX009 (ip), vehicle: Klucel (hydroxypropylcellulose) (HPC), higher T/C = longer survival) and 9 of 10 (T/C endpoint: median survival time, dose: 1.6 mg/kg/injection, schedule: Q01DX011 (ip), vehicle: saline, higher T/C = longer survival).
In the case of `Cc1c2oc3c(C)ccc(C(=O)N[C@@H]4C(=O)N[C@H](C(C)C)C(=O)N5CCC[C@H]5C(=O)N(C)CC(=O)N(C)[C@@H](C(C)C)C(=O)O[C@H]4C)c3nc-2c(C(=O)N[C@@H]2C(=O)N[C@H](C(C)C)C(=O)N3CCC[C@H]3C(=O)N(C)CC(=O)N(C)[C@@H](C(C)C)C(=O)O[C@H]2C)c(N)c1=O` (I: [aThr][dV]P[Sar][NMeV] / II: [aThr][dV]P[Sar][NMeV]; ester I:1-I:C, II:1-II:C; linker I:N-II:N via Actinocin(9to1)), the survivor count reads like this: (T/C endpoint: median survival time, dose: 0.08 mg/kg/injection, schedule: Q01DX011 (ip), vehicle: water, higher T/C = longer survival) 4 of 8; under setting [5], 6 of 10; (T/C endpoint: median survival time, dose: 0.12 mg/kg/injection, schedule: Q01DX011 (ip), vehicle: saline, higher T/C = longer survival) 0 of 8; (T/C endpoint: median survival time, dose: 0.2 mg/kg/injection, schedule: Q01DX011 (ip), vehicle: water, higher T/C = longer survival) 0 of 10 and 2 of 10; under setting [2], 0 of 8; (T/C endpoint: median survival time, dose: 0.4 mg/kg/injection, schedule: Q01DX011 (ip), vehicle: water, higher T/C = longer survival) 0 of 10. Moreover, the survivor count was 0 of 8 under setting [3] and 0 of 8 under setting [4]. Also, under setting [5], the T/C is 130 % of control.
As for `FC(F)(F)c1ccc(-c2ccc(OCCN3CCCC3)cc2)cc1`, the survivor count is reported as 5 of 8 (T/C endpoint: mean tumor weight, dose: 12.5 mg/kg/injection, schedule: Q01DX011 (ip), vehicle: saline, higher T/C = larger tumour) and 5 of 8 under setting [6].
Take `CNC(=S)N/N=C/CCC/C=N/NC(=S)NC`: the survivor count is recorded as 4 of 8 (T/C endpoint: mean tumor weight (est.), dose: 150.0 mg/kg/injection, schedule: Q01DX011 (ip), vehicle: saline with Tween-80, higher T/C = larger tumour) and 4 of 8 (T/C endpoint: median survival time, dose: 150.0 mg/kg/injection, schedule: Q01DX011 (ip), vehicle: saline with Tween-80, higher T/C = longer survival).
For `CC(=O)n1cc(F)c(=O)[nH]c1=O`, the survivor count by setting is: (T/C endpoint: median survival time, dose: 48.0 mg/kg/injection, schedule: Q01DX011 (ip), vehicle: saline, higher T/C = longer survival) 0 of 8; (T/C endpoint: median survival time, dose: 96.0 mg/kg/injection, schedule: Q01DX011 (ip), vehicle: saline, higher T/C = longer survival) 0 of 8.
Regarding `COc1c2c([n+](C)c3c(OC)cccc13)OC(C(C)C)C2` (stereo not given), the survivor count by setting is: (T/C endpoint: mean tumor weight (est.), dose: 1.0 mg/kg/injection, schedule: Q01DX011 (ip), vehicle: saline, higher T/C = larger tumour) 5 of 8; under setting [4], 5 of 8; (T/C endpoint: median survival time, dose: 2.0 mg/kg/injection, schedule: Q01DX011 (ip), vehicle: saline, higher T/C = longer survival) 0 of 8.
In the case of `O=C(c1ccccc1)C(O)(CC(c1ccccc1)[P+](c1ccccc1)(c1ccccc1)c1ccccc1)c1ccccc1` (stereo not given), the survivor count reads like this: (T/C endpoint: mean tumor weight (est.), dose: 6.25 mg/kg/injection, schedule: Q01DX011 (ip), vehicle: saline, higher T/C = larger tumour) 1 of 8; (T/C endpoint: median survival time, dose: 6.25 mg/kg/injection, schedule: Q01DX011 (ip), vehicle: saline, higher T/C = longer survival) 1 of 8; under setting [6], 0 of 8; (T/C endpoint: median survival time, dose: 50.0 mg/kg/injection, schedule: Q01DX011 (ip), vehicle: saline, higher T/C = longer survival) 0 of 8.
As to `C=C(C(=O)OC1CC2CCC(C1)N2C)c1ccccc1` (stereo not given), the survivor count is 1 of 8 (T/C endpoint: median survival time, dose: 15.0 mg/kg/injection, schedule: Q01DX011 (ip), vehicle: saline, higher T/C = longer survival); 0 of 8 (T/C endpoint: median survival time, dose: 30.0 mg/kg/injection, schedule: Q01DX011 (ip), vehicle: saline, higher T/C = longer survival); 0 of 8 (T/C endpoint: median survival time, dose: 60.0 mg/kg/injection, schedule: Q01DX011 (ip), vehicle: saline, higher T/C = longer survival).
